According to patent US20110311633A1, “Combination of a Silicon Containing Component and a Hormone” (priority 2005, published 2011):
At least one structure is not confirmed: it was looked up by name or label, or the drawing left a doubt.

Tests used:
Pre-osteoblast cells = Pre-osteoblast cells in oestrogen-free environment, hormone with or without silicon, total protein; conditions: 10^-9 M E2 with 50 micromolar silicon (orthosilicic acid) present, varying lengths of time; FIG. 2
osteoblast cells = experiment: Osteoblast cells grown under low oestrogen conditions, exposed to orthosilicic acid and oestrogen; type: cell-based
[1] = tested on: osteoblast-like cells of an osteosarcoma cell line; experiment: Osteosarcoma cell line, E2 with silicon, total protein at 48 hours; type: cell-based; conditions: 10^-9 M E2 with 50 micromolar silicon, 48 hour time point; FIG. 3
[2] = tested on: other osteoblast-like cells; experiment: Other osteoblast-like cells, E2 with silicon, total protein at 48 hours (data not shown); type: cell-based; conditions: 10^-9 M E2 with 50 micromolar silicon, 48 hour time point
[3] = combined treatment with orthosilicic acid, versus oestrogen in the absence of orthosilicic acid

For `C[C@]12CC[C@@H]3c4ccc(O)cc4CC[C@H]3[C@@H]1CC[C@@H]2O` [oestradiol], the total protein concentration (Pre-osteoblast cells) was “clear, time-dependent response”, the total cell protein (osteoblast cells; co-incubation with orthosilicic acid, relative to orthosilicic acid in the absence of oestrogen, FIG. 1) was “increase total cell protein” and the total protein (osteoblast cells; [3]) was “higher”. The “type I collagen” value (osteoblast cells; [3]) was “higher”, the total protein [1] was “synergy was similarly observed” and the total protein [2] was “synergy was similarly observed”.
